These are yes or no findings as the source states them, for the method shown. Binding seen in cells or lysates may run through a third protein. Binding calls can cover weak binding; strength is not graded here.
Target: EhADH (E. histolytica (endogenous in trophozoites)) (UniProt Q9U7F6)
Assay: co-IP; rabbit αEhADH antibodies (or preimmune serum) on protein G-agarose; trophozoite lysates (1 mg) in resting conditions and at different times of erythrophagocytosis; overnight at 4 °C; washes with PBS; western blot

Sequences of proteins named here, by UniProt entry; tags and fusion partners are left off. A change or cut given only in a name is not applied to a line headed by its entry.
UniProt Q9U7F6: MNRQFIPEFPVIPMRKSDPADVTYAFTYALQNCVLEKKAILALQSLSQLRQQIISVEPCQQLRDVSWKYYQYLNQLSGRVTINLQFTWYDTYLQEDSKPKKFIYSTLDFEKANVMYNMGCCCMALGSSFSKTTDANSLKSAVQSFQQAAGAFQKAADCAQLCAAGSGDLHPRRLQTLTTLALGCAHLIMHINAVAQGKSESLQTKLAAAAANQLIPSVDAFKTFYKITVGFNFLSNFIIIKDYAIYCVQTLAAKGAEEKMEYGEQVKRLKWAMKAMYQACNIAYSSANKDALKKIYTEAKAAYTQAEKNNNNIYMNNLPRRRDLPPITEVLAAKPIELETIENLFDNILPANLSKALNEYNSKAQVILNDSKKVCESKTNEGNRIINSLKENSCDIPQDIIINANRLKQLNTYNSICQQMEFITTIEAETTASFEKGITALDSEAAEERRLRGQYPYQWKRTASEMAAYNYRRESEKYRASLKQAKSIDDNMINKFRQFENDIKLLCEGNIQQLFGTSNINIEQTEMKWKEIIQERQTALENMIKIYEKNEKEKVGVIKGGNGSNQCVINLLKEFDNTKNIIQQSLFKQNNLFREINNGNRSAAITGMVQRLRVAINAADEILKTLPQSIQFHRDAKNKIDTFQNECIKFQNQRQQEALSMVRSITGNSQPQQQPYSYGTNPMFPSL
UniProt C4M1A5: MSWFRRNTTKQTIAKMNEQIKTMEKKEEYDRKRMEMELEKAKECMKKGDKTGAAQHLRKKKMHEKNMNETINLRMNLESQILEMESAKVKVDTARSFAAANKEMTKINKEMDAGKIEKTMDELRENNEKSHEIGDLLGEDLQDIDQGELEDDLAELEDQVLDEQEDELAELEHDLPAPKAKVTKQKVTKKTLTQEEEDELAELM

EhVps32 protein (from UniProt C4M1A5)
binding: binds

Source: article PMC4521941
